Out of some 330,000 compounds screened, about 7,700 (2.3%) were called active. Inconclusive means that the source gave no clear call. Such entries were picked first, then a sample of the others. The call rests on the fitted dose curve; in most records, active means well fitted inhibition curve with a large enough effect; inconclusive means small, poorly fitted or top-dose-only effect, or effect the other way; inactive means flat fitted curve, though single readings scatter. Potencies beside an inconclusive call are fits to weak or partial responses and may not hold up.
Assay: qHTS screen for small molecules that inhibit ELG1-dependent DNA repair in human embryonic kidney (HEK293T) cells expressing luciferase-tagged ELG1; further: nearly all actives have a fitted effect of over 55% in size
Conditions: HEK293T ELG1-luciferase reporter, luminescence, 16 h, DNA damage induced by 5-fluorouridine; series mostly up to 46.1 µM
Procedure, shortened: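 Reporter activity after DNA damage by 5-fluorouridine is monitored. Compound-treated cells incubate 16 hr at 37 °C, then ONE-Glo is added for 30 min before luminescence reading.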
With O=C(NC(=S)Nc1cccnc1Cl)c1ccc(Cl)cc1 the Potency was inconclusive: 18.3 µM [activator, partial curve].
In the case of O=C(NCc1cccnc1)C1CCN(S(=O)(=O)c2cccc(C(F)(F)F)c2)CC1, the Potency is reported as “inactive”.
For COc1ccccc1NC(=O)CSC1=NCCN1, the Potency was inconclusive: 16.4 µM [inhibitor, partial curve, poor fit].
In the case of O=C(NC1CC1)c1ccc(NS(=O)(=O)c2ccc(F)cc2)cc1, the Potency is reported as “inactive”.
With O=C(CCOc1cccc(Br)c1)Nc1ccc(F)c(S(=O)(=O)N2CCOCC2)c1 the Potency was inconclusive: 25.9 µM [inhibitor, single point].
With CC(C)CCC(CCN1CCOCC1)c1ccc2c(c1)OCO2 (centres undefined) the Potency was “inactive”.
For c1ccc(N2CCN(c3ncnc4sc5c(c34)CCC5)CC2)cc1, the Potency was active: 16.4 µM.
In the case of O=C(c1ccc(NS(=O)(=O)c2ccc(Cl)cc2)cc1)N1CCOCC1, the Potency is reported as “inactive”.
For Cc1ccc(CNC(=O)c2ccc(CS(=O)(=O)c3ccccc3)o2)cc1, the Potency was inconclusive: 11.6 µM [inhibitor, partial curve, poor fit].
With COc1ccc(S[C@@H](CCN2CC[C@H](NC(=O)OCc3ccccc3)CCC2=O)c2ccccc2)cc1 the Potency was active: 18.3 µM.
With O=C(Nc1ccc(N2CCOCC2)c(Cl)c1)c1cc2ccccc2o1 the Potency was inconclusive: 25.9 µM [inhibitor, single point].
For CCOC(=O)N1CCN(S(=O)(=O)N2CCCC(C(=O)NCCc3ccc(OCC)c(OCC)c3)C2)CC1 (centres undefined), the Potency was “inactive”.
For COCC1CCN(C(=O)c2ccc3oc(Cc4ccccc4)nc3c2)C1 (centres undefined), the Potency was inconclusive: 16.4 µM [activator, single point].
For COc1ccc(C2CC(c3ccc4ccccc4c3)=NN2C(=O)COC(=O)C2CCC(=O)N2)cc1 (centres undefined), the Potency was inconclusive: 4.61 µM [activator, partial curve].
For Nn1c(SCC(=O)Nc2ccc3c(c2)OCCO3)nnc(CCC(=O)O)c1=O, the Potency was inconclusive: 20.6 µM [activator, partial curve, poor fit].
For Cc1c(C=O)c(C=O)c(C)n1Cc1ccccc1, the Potency was inconclusive: 29.1 µM [inhibitor, single point].
In the case of C/C(=N\OC(=O)c1ccc(Cl)c(Cl)c1)c1sc(C)nc1C, the Potency is reported as “inactive”.
In the case of c1ccc(C2=Nc3c(ccc4ccccc34)C(c3ccncc3)=NN2)cc1, the Potency is reported as inconclusive: 18.3 µM [inhibitor, single point].
With O=C(Nc1nc(-c2ccc(S(=O)(=O)N3CCCC3)cc2)cs1)c1ccco1 the Potency was inconclusive: 23.1 µM [inhibitor, single point].
With CCOc1ccc(N(CC(=O)NCc2ccccc2C)S(C)(=O)=O)cc1 the Potency was inconclusive: 7.3 µM [activator, partial curve].
With Cc1c(NC(=O)c2ccc(Cl)c([N+](=O)[O-])c2)cccc1-n1cnnn1 the Potency was inconclusive: 20.6 µM [inhibitor, partial curve].
In the case of CN(C(=O)COC(=O)c1cccnc1Cl)C1CCCCC1, the Potency is reported as inconclusive: 20.6 µM [activator, partial curve].
For C=CCNc1nc(-c2ccc(O)c(C(N)=O)c2)cs1, the Potency was inconclusive: 18.4 µM [activator, partial curve].
With O=[N+]([O-])c1ncn(Cc2c(Cl)cccc2Cl)n1 the Potency was “inactive”.
With S=C(c1ccc(-c2ccccc2Cl)o1)N1CCCCC1 the Potency was inconclusive: 16.4 µM [activator, partial curve].
For Cc1nc2ccc(NC(=O)c3ccc(S(=O)(=O)N4CCOCC4)cc3)cc2s1, the Potency was active: 9.2 µM.
With COc1cc(C(=O)O/N=C(\N)c2ccncc2)cc(OC)c1OC the Potency was “inactive”.
For Cc1cc([N+](=O)[O-])cc(/C=N/n2c(C)nc3ccccc3c2=O)c1O, the Potency was inconclusive: 29.1 µM [inhibitor, single point].
With CC(=O)c1c(COC(=O)c2ccccc2)nc2ccccc2[n+]1[O-] the Potency was inconclusive: 32.6 µM [inhibitor, single point].
For CCCCNc1c(-c2ccc(-c3ccc(OC)cc3)c(OC)c2)nc2ccccn12, the Potency was inconclusive: 29.1 µM [inhibitor, single point].
For CS(=O)(=O)Cc1ccc(C(=O)NC2CCSc3ccccc32)cc1 (centres undefined), the Potency was “inactive”.
For CCc1ccc(NC(=O)C(C)OC(=O)Cc2cc(OC)c(OC)c(OC)c2)cc1 (centres undefined), the Potency was inconclusive: 20.6 µM [inhibitor, single point].
For COc1ccccc1-c1nnc(SC2CCc3ccccc3NC2=O)s1 (centres undefined), the Potency was inconclusive: 29.1 µM [inhibitor, single point].
With CCc1ccccc1NC(=O)c1nnn(CC(=O)Nc2ccccc2C)c1N the Potency was “inactive”.
With CCC(=O)OCC(=O)Nc1ncc(C(F)(F)F)cc1Cl the Potency was inconclusive: 29.1 µM [activator, single point].
For O=C(COC(=O)/C=C/c1ccco1)Nc1ccccc1, the Potency was “inactive”.
For CCOc1cccc(-c2nnc(SCC(=O)Nc3cc(C)ccc3OC)n2N)c1, the Potency was active: 0.58 µM.
In the case of O=C1C2CC=CCC2C(=O)N1c1nc2n(n1)C(c1ccccc1)CC(c1ccccc1)N2 (centres undefined), the Potency is reported as “inactive”.
In the case of CC(C)(C)OC(=O)[C@H](Cc1ccccc1)NC(=O)c1nc[nH]c1C(=O)NC1CCN(C(=O)OC(C)(C)C)CC1, the Potency is reported as “inactive”.
For CCCCN(CC)CCNC(=O)c1cn(CCOC)c(=O)c2c1c1ccccc1n2C, the Potency was inconclusive: 20.6 µM [activator, partial curve, poor fit].
For CCOc1ccccc1NC(=O)COC(=O)/C=C/c1ccc(OC)c(OC)c1, the Potency was inconclusive: 23.1 µM [inhibitor, single point].
With CCCCC(=O)NC(=S)NNC(=O)c1ccc(Cl)cc1Cl the Potency was inconclusive: 29.1 µM [inhibitor, single point].
In the case of COc1ccc(C(=O)NCCCc2nc3ccccc3n2Cc2cc(C)ccc2C)cc1OC, the Potency is reported as inconclusive: 32.6 µM [inhibitor, single point].
In the case of N#C/C(=C\c1c(Cl)cccc1Cl)c1nn(-c2ccccc2)c(-n2cccc2)c1C#N, the Potency is reported as inconclusive: 25.9 µM [inhibitor, single point].
In the case of COc1ccc(NC(=S)N(CCCN2CCOCC2)Cc2ccccn2)cc1, the Potency is reported as “inactive”.
With O=C(NCCSc1ccccn1)c1ccc(Cl)cc1Cl the Potency was inconclusive: 2.59 µM [activator, partial curve].
In the case of Oc1ccccc1-c1n[nH]c(=S)n1Cc1ccccc1, the Potency is reported as “inactive”.
With Cc1ccc2[nH]cc(CCNC(=O)c3cccs3)c2c1 the Potency was “inactive”.
In the case of O=C(COc1ccc(Cl)cc1)Nc1ccc(CN2CCOCC2)cc1, the Potency is reported as inconclusive: 5.17 µM [inhibitor, partial curve, poor fit].
With FC(F)(F)c1ccccc1N/N=C/c1cccnc1 the Potency was inconclusive: 10.3 µM [activator, partial curve].
For COc1ccccc1N1CCN(C(=O)c2sc3nc4n(c(=O)c3c2C)CCC4)CC1, the Potency was inconclusive: 6.51 µM [inhibitor, partial curve].
In the case of CCOC(=O)c1c(C)[nH]c(C)c1C(=O)CSc1nc2ccccc2c(=O)n1-c1ccccc1C, the Potency is reported as active: 23.1 µM.
In the case of COc1ccccc1NC(=O)c1cc2c(CO)cnc(C)c2oc1=Nc1ccccc1, the Potency is reported as inconclusive: 6.51 µM [inhibitor, single point].
In the case of O=[N+]([O-])c1ccc(Nc2nc(NC3CCCCC3)nc(N3CCCC3)n2)cc1, the Potency is reported as inconclusive: 20.6 µM [inhibitor, partial curve].
With COc1cc(-c2cc(C(=O)N3CCN(c4ccccn4)CC3)c3ccccc3n2)cc(OC)c1OC the Potency was active: 8.2 µM.
For CN(C)c1oc(-c2ccc(OCc3ccccc3)cc2)nc1C#N, the Potency was inconclusive: 14.6 µM [activator, partial curve].
With Cc1ccccc1NC(=O)/C=C/c1cccc(C(F)(F)F)c1 the Potency was “inactive”.
For Cc1cnc(NC(=O)c2cncc(Br)c2)s1, the Potency was inconclusive: 2.31 µM [activator, full curve].
For CCOC(=O)c1cc2c(=O)n3ccccc3nc2n(CCOC)c1=NC(=O)c1ccncc1, the Potency was inconclusive: 11.2 µM [inhibitor, partial curve].
For Cc1ccc(-c2cn3c(n2)CCCC3)cc1, the Potency was “inactive”.
For Cc1nn(Cc2cccc(C(=O)NC34CC5CC(CC(C5)C3)C4)c2)c(C)c1Br, the Potency was active: 23.1 µM.
For C=CCOc1ccc(/C=C/C(=O)N2CCCN(S(=O)(=O)c3c(C)noc3C)CC2)cc1, the Potency was inconclusive: 18.3 µM [inhibitor, single point].
With O=C(Nc1ccc(NC(=O)c2ccc(S(=O)(=O)c3ccccc3)cc2)cc1)c1ccccc1 the Potency was inconclusive: 29.1 µM [activator, single point].
In the case of C=CCOc1ccc(/C(O)=C2\C(=O)C(=O)N(CCN(C)C)C2c2cccs2)cc1 (centres undefined), the Potency is reported as inconclusive: 29.1 µM [activator, single point].
For COc1ccccc1CNCc1cc(Br)ccc1OC, the Potency was inconclusive: 6.51 µM [inhibitor, single point].
In the case of CCCCN(C(=O)c1cccc(S(=O)(=O)N(C)c2ccc(C)cc2)c1)c1c(N)n(CCCC)c(=O)[nH]c1=O, the Potency is reported as inconclusive: 0.0231 µM [inhibitor, full curve, poor fit].
In the case of CCOC(=O)C(NCc1ccccc1OC)(NC(C)=O)C(F)(F)F (centres undefined), the Potency is reported as inconclusive: 32.6 µM [inhibitor, partial curve, poor fit].
In the case of CCOc1ccc(NC(=S)N(CCc2c(C)[nH]c3ccccc23)Cc2ccco2)cc1, the Potency is reported as inconclusive: 23.1 µM [inhibitor, single point].
For CCOC(=O)Cc1csc(NC(=O)/C=C/c2cccc(Br)c2)n1, the Potency was inconclusive: 8.2 µM [inhibitor, partial curve].

From PubChem BioAssay AID504467 (National Center for Advancing Translational Sciences (NCATS), 2011)
Potency means the concentration at half of the fitted maximal effect.
